# Laboratory results reported in paper PMC4709192.
# The chains behind the UniProt entries cited, without tags or fusion partners.
# UniProt P98175: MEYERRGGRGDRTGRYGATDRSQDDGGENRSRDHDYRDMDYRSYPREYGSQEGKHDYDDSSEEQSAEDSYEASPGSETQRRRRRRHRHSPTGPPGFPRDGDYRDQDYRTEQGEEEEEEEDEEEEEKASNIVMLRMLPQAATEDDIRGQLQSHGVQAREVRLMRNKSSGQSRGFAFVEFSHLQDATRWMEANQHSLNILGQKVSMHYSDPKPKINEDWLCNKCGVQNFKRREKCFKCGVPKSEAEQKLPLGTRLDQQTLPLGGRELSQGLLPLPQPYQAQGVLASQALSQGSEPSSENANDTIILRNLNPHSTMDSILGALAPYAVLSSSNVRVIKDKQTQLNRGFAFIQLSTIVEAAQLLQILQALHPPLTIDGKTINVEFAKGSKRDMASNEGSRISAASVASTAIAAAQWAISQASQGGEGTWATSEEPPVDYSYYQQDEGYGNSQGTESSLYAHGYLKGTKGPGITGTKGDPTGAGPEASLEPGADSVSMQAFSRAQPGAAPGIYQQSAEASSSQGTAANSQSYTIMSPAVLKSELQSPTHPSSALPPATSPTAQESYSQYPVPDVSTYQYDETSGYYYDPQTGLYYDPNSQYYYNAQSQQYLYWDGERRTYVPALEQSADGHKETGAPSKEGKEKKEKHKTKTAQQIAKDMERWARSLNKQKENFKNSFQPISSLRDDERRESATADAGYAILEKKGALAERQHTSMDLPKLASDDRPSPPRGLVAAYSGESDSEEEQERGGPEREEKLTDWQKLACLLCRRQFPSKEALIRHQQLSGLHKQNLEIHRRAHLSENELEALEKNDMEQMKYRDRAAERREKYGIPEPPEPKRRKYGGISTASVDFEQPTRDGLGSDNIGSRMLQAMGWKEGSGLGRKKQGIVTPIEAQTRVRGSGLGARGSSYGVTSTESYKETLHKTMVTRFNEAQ
# No constants are given. Whether binding was seen depends on the method and setting. In cells and extracts the contact can be indirect. Where a sequence is shown, tags or fusion partners need not be part of it.
# B1: N-terminal half of Flag-FilGAP (NT) (domain or fragment, UniProt Q8N264-1 1-391)
# chain: MEENNDSTENPQQGQGRQNAIKCGWLRKQGGFVKTWHTRWFVLKGDQLYYFKDEDETKPLGTIFLPGNKVSEHPCNEENPGKFLFEVVPGGDRDRMTANHESYLLMASTQNDMEDWVKSIRRVIWGPFGGGIFGQKLEDTVRYEKRYGNRLAPMLVEQCVDFIRQRGLKEEGLFRLPGQANLVKELQDAFDCGEKPSFDSNTDVHTVASLLKLYLRELPEPVIPYAKYEDFLSCAKLLSKEEEAGVKELAKQVKSLPVVNYNLLKYICRFLDEVQSYSGVNKMSVQNLATVFGPNILRPKVEDPLTIMEGTVVVQQLMSVMISKHDCLFPKDAELQSKPQDGVSNNNEIQKKATMGQLQNKENNNTKDSPSRQCSWDKSESPQRSSMNNGS
# Biological target: HA-tagged RBM10 (full length, wild-type) (human) (UniProt P98175)
# Test: co-IP; HEK293T cells transiently co-transfected; lysis buffer 50 mM Tris-HCl pH 8.0, 10% glycerol, 0.1% NP-40, 100 mM NaCl; HA-RBM10 precipitated with anti-HA agarose 1 hour at 4°C; Western blot
binder,measurement,value
B1,binding,no binding
